Experimental data published in patent US20130078260A1, “COMPOUNDS TARGETING THE VEGF AND/OR HIF PATHWAY SUCH AS SORAFENIB OR VATALANIB FOR USE IN THE TREATMENT OF OTITIS MEDIA” (MEDICAL RESEARCH COUNCIL, priority 2010, published 2013).
At least one structure is not confirmed: it was looked up by name or label, or the drawing left a doubt.

Tested on: Jbo/+ mice
Assay: Click-evoked Auditory Brain Stem response (ABR) change in drug-treated Junbo (Jbo/+) mice, chronic otitis media model
Format: in vivo, mouse
Settings: 20 mg/kg, 28 days, vs sham (P > 0.05)
Description: Drug treatment, ABR and analysis of inflammation. […] The sham
Jbo/+ group was matched for age, gender and pre-trial ABR (30-60 dB) and received vehicle alone. A click-evoked ABR (Zheng, Q. Y., et al. (1999) Hearing Res. 130, 94-107) was measured at the beginning and end of the trial (or after 3 wk in the 50 mg/kg PTK787 trial). For ABR with recovery, anesthesia was induced by i.p. injection with a mixture of 10 mg/kg xylazine and 100 mg/kg ketamine and was reversed by 5 mg/kg atipamezole hydrochloride. Histology was assessed at 4 wk in both PTK787 trials.
Statistics. Student t-tests or Mann Whitney U tests (for ABR measurements where interval data was in 5 dB increments) were performed and test values p<0.05 were considered significant. Percentages were arcsine transformed before using t-tests. In the drug trials, 1-tailed tests were used compare drug and sham-treated groups, otherwise 2-tailed tests were used.

SMILES: CN(CCOc1ccc(CC2SC(=O)NC2=O)cc1)c1ccccn1 (stereo not shown) [Rosiglitazone]
- Effect on hearing loss: did not moderate hearing loss
